± gives the standard deviation of the averaged measurements. The reference is the same well before dosing, and untreated signal decays as well.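 The cancer cells are triple-negative breast cancer lines of basal-like or mesenchymal-like type, grown without fibroblasts. A drop in red signal reflects loss of mitochondrial integrity, a stand-in for apoptotic death.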
Assays:
MDAMB436 = assay: relative JC-1 red fluorescence (viability) vs pre-drug, monoculture (fraction); higher = more viable cancer cells; conditions: coculture fibroblast: none (monoculture)
Experimental: (§1)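 JC-1 labelled TNBC cells grown in monoculture (density kept equal with unlabelled cancer cells) in 384-well plates in FluoroBrite medium, treated with one of 42 anticancer drugs at 0.1, 1, 10 or 100 uM. JC-1 red fluorescence (mitochondrial integrity, surrogate of apoptotic death) was read by plate reader every 8 h for 72 h. Values are normalised to each well's pre-drug value, with background from alamethicin. The stock of one drug was tenfold lower, so its dose labels may be too high. Monoculture values are repeated alongside each fibroblast plate and are averaged here.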

MDAMB231 = assay: as above; conditions: coculture fibroblast: none (monoculture)
Experimental: as §1

CO[C@H]1C[C@@H]2CC[C@@H](C)[C@@](O)(O2)C(=O)C(=O)N2CCCC[C@H]2C(=O)O[C@H]([C@H](C)C[C@@H]2CC[C@@H](OCCO)[C@H](OC)C2)CC(=O)[C@H](C)/C=C(\C)[C@@H](O)[C@@H](OC)C(=O)[C@H](C)C[C@H](C)/C=C/C=C/C=C/1C [Everolimus]
relative JC-1 red fluorescence
Conditions | 8 h | 16 h | 24 h | 32 h | 40 h | 48 h | 56 h | 64 h | 72 h
MDAMB231, 0.1 µM | 0.776 ± 0.018 | 0.701 ± 0.019 | 0.724 ± 0.072 | 0.69 ± 0.014 | 0.671 ± 0.013 | 0.6888 ± 0.005 | 0.6708 ± 0.003 | 0.706 ± 0.018 | 0.707 ± 0.034
MDAMB231, 1 µM | 0.761 ± 0.018 | 0.738 ± 0.0097 | 0.602 ± 0.033 | 0.636 ± 0.022 | 0.597 ± 0.02 | 0.575 ± 0.034 | 0.54 ± 0.034 | 0.536 ± 0.035 | 0.531 ± 0.041
MDAMB231, 10 µM | 0.7824 ± 0.0034 | 0.821 ± 0.017 | 0.854 ± 0.022 | 0.8676 ± 0.0038 | 0.8455 ± 0.0039 | 0.8365 ± 0.0042 | 0.8242 ± 0.0076 | 0.85 ± 0.012 | 0.835 ± 0.012
MDAMB231, 100 µM | 0.894 ± 0.095 | 0.807 ± 0.061 | 0.81 ± 0.11 | 0.935 | 0.868 | 0.834 | 0.715 | 0.788 | 0.775
MDAMB436, 0.1 µM | 0.865 ± 0.012 | 0.704 ± 0.011 | 0.72 ± 0.02 | 0.663 ± 0.018 | 0.639 ± 0.027 | 0.632 ± 0.031 | 0.621 ± 0.035 | 0.622 ± 0.037 | 0.627 ± 0.05
MDAMB436, 1 µM | 0.8804 ± 0.0072 | 0.816 ± 0.024 | 0.808 ± 0.026 | 0.767 ± 0.019 | 0.756 ± 0.025 | 0.759 ± 0.027 | 0.762 ± 0.024 | 0.758 ± 0.031 | 0.755 ± 0.021
MDAMB436, 10 µM | 0.928 ± 0.014 | 0.943 ± 0.021 | 0.871 ± 0.097 | 0.958 ± 0.038 | 0.886 ± 0.037 | 0.813 ± 0.075 | 0.803 ± 0.084 | 0.933 ± 0.061 | 0.789 ± 0.077
MDAMB436, 100 µM | 0.831 ± 0.11 | 0.832 ± 0.1 | 0.811 ± 0.025 | 0.7334 ± 0.0022 | 0.832 ± 0.12 | 0.883 ± 0.043 | 0.753 ± 0.036 | 0.6716 ± 0.0021 | 0.62 ± 0.015
